Test results taken from publication PMC4849473.
No constants are given. Whether binding was seen depends on the method and setting. Where a sequence is shown, tags or fusion partners need not be part of it.

Target: [Lys(Me3)9]-Histone H3 (1–21)-GGK(Biotin) peptide (UniProt P68431)
Assay: pull-down; biotinylated H3K9me3 peptide (1 μg) on streptavidin agarose resin, about 5 μg Chp1CD in 20 μl, 1 h on ice; 20 mM HEPES pH 7.5, 75 mM KCl, 0.5 mM DTT; SDS-PAGE, quantified with ImageJ, normalized to wt; both purified

B1: His6-SUMO-Chp1CD W44A (domain or fragment, UniProt Q10103 15-75)
chain: GETDADVYEVEDILADRVNKNGINEYYIKAAGYDWYDNTWEPEQNLFGAEKVLKKWKKRKK
Q: Which binding does the source give for B1 here?
A: no binding (tested: approximately 5 μg of Chp1CD in 20 μl)
